This is one part of the list.

In the test the target is T1, OsSMF1 (Oryza sativa, UniProt Q6ZLB0 1-436).
T1 sequence: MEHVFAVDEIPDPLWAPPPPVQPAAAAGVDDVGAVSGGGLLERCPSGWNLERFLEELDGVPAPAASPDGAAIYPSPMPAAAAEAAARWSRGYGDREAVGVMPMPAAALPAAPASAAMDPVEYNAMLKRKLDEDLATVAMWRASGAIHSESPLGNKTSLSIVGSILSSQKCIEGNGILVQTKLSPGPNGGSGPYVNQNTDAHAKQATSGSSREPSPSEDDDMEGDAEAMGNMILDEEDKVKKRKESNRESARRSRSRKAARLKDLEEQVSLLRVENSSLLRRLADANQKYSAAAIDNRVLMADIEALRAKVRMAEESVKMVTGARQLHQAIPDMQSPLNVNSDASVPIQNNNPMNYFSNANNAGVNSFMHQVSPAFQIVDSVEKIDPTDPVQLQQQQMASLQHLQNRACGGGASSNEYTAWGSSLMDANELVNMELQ
Description: protein-binding microarray (RPBM); PBS, 2% BSA, 51.3 ng/ul salmon testes DNA, 50 uM zinc acetate, 200 nM TF, 25 C, 1 h; high values mean tight binding. As to conditions: protein: recombinant; tags: N-terminal polyhistidine and DsRed monomer fusion (pET32a); chain copies: 2; label: CyDye5-dUTP incorporated in the synthesized complementary strand; 3' TTTTT single-stranded linker to array surface; dsDNA, one strand shown. In a few lines:
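Transcription factors were made in E. coli BL21-CodonPlus as N-terminal fusions to a polyhistidine tag and DsRed, then purified on Ni–NTA. After primer extension with Cy5-dUTP and blocking with 2% BSA, a custom Agilent array was exposed for 1 h at 25 °C to 200 nM protein in PBS, 2% BSA, salmon testes DNA and 50 µM zinc acetate. Washed arrays were scanned on an Axon 4000B, and the binding signal is per-feature fluorescence intensity in arbitrary units.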
Regarding “ATGGAAGTGCTGAATCAGCTCTTGTAAATCCTATTTCATTCGGAGTCACCTAGTGCAG”, the binding signal is 8860 fluorescence intensity (a.u.).

With “TAGGCGCTAAGTCCGACTTCCTCTCCCCGAGATAGCCAGCCGGAGTCACCTAGTGCAG”, the binding signal is 32300 fluorescence intensity (a.u.).

Take “ACCGTCATCCTCGCCGTCCCCTTCTTCTGCGCCGCCGCCGCGGAGTCACCTAGTGCAG”: the binding signal is 10700 fluorescence intensity (a.u.).

Consider “ATGGACCACGTGTACGCTTTGTATGGAATAAGGTCACTTTCGGAGTCACCTAGTGCAG”, for which the binding signal is 10000 fluorescence intensity (a.u.).

In the case of “CACGAATCACGGAGCGAAACGTGGCCGCGCGGTTCAGACCCGGAGTCACCTAGTGCAG”, the binding signal was 21400 fluorescence intensity (a.u.).

As for “GACGTGTGGGTCCCACTTCTGGTGGGGACACGTGTCAGCCCGGAGTCACCTAGTGCAG”, the binding signal was 21800 fluorescence intensity (a.u.).

As to “GGAGGAGGAGCTAGGGTTTCGGATGGGAGGAGGAGGAGGGCGGAGTCACCTAGTGCAG”, the binding signal was 3140 fluorescence intensity (a.u.).

Regarding “CCCTAGACGACCACCACCATCTGACGGCGGTGGCTGCGGCCGGAGTCACCTAGTGCAG”, the binding signal is 3540 fluorescence intensity (a.u.).

Regarding “CATCATGACGGCAATCATCGGCGACACGTGCCCGCAGCGGCGGAGTCACCTAGTGCAG”, the binding signal was 6200 fluorescence intensity (a.u.).

As to “CTATGCCTTGTCAACATTCAACCCCTCCAATAGACTTTGTCGGAGTCACCTAGTGCAG”, the binding signal was 3210 fluorescence intensity (a.u.).

Regarding “TTTAGACACGTATATGATGCACATATATGGATCCATGCATCGGAGTCACCTAGTGCAG”, the binding signal is 4290 fluorescence intensity (a.u.).

On to “TTCCCGGACCCAATAAACCATCCGATGGCCTCCTTTGACGCGGAGTCACCTAGTGCAG”, for which the binding signal was 3380 fluorescence intensity (a.u.).

Regarding “CACTGACACGGCCCACGAAGCCGCAGCGTTCATGCGTAGACGGAGTCACCTAGTGCAG”, the binding signal was 3140 fluorescence intensity (a.u.).

“ACCACATGTAGTGGTAGGGTCGATCCAATCTGCTCTACCTCGGAGTCACCTAGTGCAG”: the binding signal is 26400 fluorescence intensity (a.u.).

For “TTATAATGAATAAAAGATTCTTCTTCTTTGGCAAATTGCACGGAGTCACCTAGTGCAG”, the binding signal was 14000 fluorescence intensity (a.u.).

As for “TTGTATAAAATAATCAGTGTGTCATGCTTAAAGTCTAAAACGGAGTCACCTAGTGCAG”, the binding signal is 4260 fluorescence intensity (a.u.).

As for “TAAGATGATCGGACTCCTAATTACAGCTCATGATTTTCTTCGGAGTCACCTAGTGCAG”, the binding signal is 3170 fluorescence intensity (a.u.).

“ATAACAATTAGGATGAAATGGTCAAGCGCATGGTTGGGATCGGAGTCACCTAGTGCAG”: the binding signal is 3460 fluorescence intensity (a.u.).

As to “CGTACGGGTACTGATTCGTCACGCTGCGCCGTGTTGCGTCCGGAGTCACCTAGTGCAG”, the binding signal was 4580 fluorescence intensity (a.u.).

“TGACATCGTCTTCTCCAACTTCGGCCGCCGGCGTCAATCTCGGAGTCACCTAGTGCAG”: the binding signal was 3310 fluorescence intensity (a.u.).

Turning to “GGTCCCTGCCTCGTGAGCAGCCCATCTGCACTGCCTTCTGCGGAGTCACCTAGTGCAG”, the binding signal was 3630 fluorescence intensity (a.u.).

With “AGTCCACATGGAGTACCCCATAAGCCCATCGCTAATTATACGGAGTCACCTAGTGCAG”, the binding signal is 3440 fluorescence intensity (a.u.).

For “ACTATCTACGTCATCTCCTATTTCTTCCCTTTTCTTCTCTCGGAGTCACCTAGTGCAG”, the binding signal was 15400 fluorescence intensity (a.u.).

With “CTGAACACGTATGTGTCTAGATTCGTTGATAGGATTGGATCGGAGTCACCTAGTGCAG”, the binding signal is 3930 fluorescence intensity (a.u.).

“GGTGGAAATGGTGTTTATGTGTGTGAGTATGTTATTCCTTCGGAGTCACCTAGTGCAG”: the binding signal is 3200 fluorescence intensity (a.u.).

For the sequence “CTGAATTTGACTCTTGGATGGTGACTATGATGTCCAAGTACGGAGTCACCTAGTGCAG”, the binding signal was 45100 fluorescence intensity (a.u.).

Regarding “ACATGAGGCAGCTTTCCATATCACCGTATCCATAGCCCATCGGAGTCACCTAGTGCAG”, the binding signal is 3580 fluorescence intensity (a.u.).

For “AAATAAAATGCTAACTGGATTGCCACGCGTATAAAACAGCCGGAGTCACCTAGTGCAG”, the binding signal is 7090 fluorescence intensity (a.u.).

Turning to “TAACATTGTTTCTGACTTGCTGAGTTGTACTAAAACTTTGCGGAGTCACCTAGTGCAG”, the binding signal is 4020 fluorescence intensity (a.u.).

Regarding “CAACACTCTTCCGAAGCATTAAGAATCACCTACACATGCACGGAGTCACCTAGTGCAG”, the binding signal was 20700 fluorescence intensity (a.u.).

On to “GCACAACCGCACACGAGACGACGTCACCCACAACCGCACGCGGAGTCACCTAGTGCAG”, for which the binding signal was 6040 fluorescence intensity (a.u.).

Regarding “GATGGTACTATCCAATAGTTTCCCTGTTACGAACTCCTCCCGGAGTCACCTAGTGCAG”, the binding signal was 7030 fluorescence intensity (a.u.).

On to “GTTTTGTCTCACGTGACGGCTGAGTCAGCGTGAGACCCACCGGAGTCACCTAGTGCAG”, for which the binding signal was 10600 fluorescence intensity (a.u.).

Regarding “CTTACAACTAGGGATGGATGGTGTCATGAAGGTCCTTAGACGGAGTCACCTAGTGCAG”, the binding signal is 3560 fluorescence intensity (a.u.).

For “CCTGCTGACAATGCATTGACACATTGATGGACTGTAGGACCGGAGTCACCTAGTGCAG”, the binding signal is 10200 fluorescence intensity (a.u.).

As for “CCAGCATCATCACCGCATCACGTCCTCGTCGGCCTCCACGCGGAGTCACCTAGTGCAG”, the binding signal was 5470 fluorescence intensity (a.u.).

For “GGCGTCCGTGGTGACTCGTCAACTCAACATATGCCGTTCCCGGAGTCACCTAGTGCAG”, the binding signal is 3640 fluorescence intensity (a.u.).

In the case of “AGCCAAAATAACTCAGCACCGAGTATAGCCACAACGTCACCGGAGTCACCTAGTGCAG”, the binding signal is 3190 fluorescence intensity (a.u.).

As to “AGTACTTCACGTCAGAATAATGTGTGACTATGATGTGTGGCGGAGTCACCTAGTGCAG”, the binding signal is 6110 fluorescence intensity (a.u.).

Turning to “CTCCTCACTTCTGTCATCATCTCTCTCAGACTTCTCTTTCCGGAGTCACCTAGTGCAG”, the binding signal was 3820 fluorescence intensity (a.u.).

Regarding “TTGTTTCGTATGTCTCTAGTGTGACTATTGCATGTACTTGCGGAGTCACCTAGTGCAG”, the binding signal was 3510 fluorescence intensity (a.u.).

Turning to “AGCGTAGGCGGAATAGCATCCTAGGGCGCACGCGTCACGCCGGAGTCACCTAGTGCAG”, the binding signal is 5260 fluorescence intensity (a.u.).

The values are drawn from article PMC7819943, “Rice protein-binding microarrays: a tool to detect cis-acting elements near promoter regions in rice”.
